Laboratory results published in the supplement of paper PMC10849652.
This is one part of the list.

Sequences of proteins named here, by UniProt entry; tags and fusion partners are left off. A change or cut given only in a name is not applied to a line headed by its entry.
UniProt Q08AD1: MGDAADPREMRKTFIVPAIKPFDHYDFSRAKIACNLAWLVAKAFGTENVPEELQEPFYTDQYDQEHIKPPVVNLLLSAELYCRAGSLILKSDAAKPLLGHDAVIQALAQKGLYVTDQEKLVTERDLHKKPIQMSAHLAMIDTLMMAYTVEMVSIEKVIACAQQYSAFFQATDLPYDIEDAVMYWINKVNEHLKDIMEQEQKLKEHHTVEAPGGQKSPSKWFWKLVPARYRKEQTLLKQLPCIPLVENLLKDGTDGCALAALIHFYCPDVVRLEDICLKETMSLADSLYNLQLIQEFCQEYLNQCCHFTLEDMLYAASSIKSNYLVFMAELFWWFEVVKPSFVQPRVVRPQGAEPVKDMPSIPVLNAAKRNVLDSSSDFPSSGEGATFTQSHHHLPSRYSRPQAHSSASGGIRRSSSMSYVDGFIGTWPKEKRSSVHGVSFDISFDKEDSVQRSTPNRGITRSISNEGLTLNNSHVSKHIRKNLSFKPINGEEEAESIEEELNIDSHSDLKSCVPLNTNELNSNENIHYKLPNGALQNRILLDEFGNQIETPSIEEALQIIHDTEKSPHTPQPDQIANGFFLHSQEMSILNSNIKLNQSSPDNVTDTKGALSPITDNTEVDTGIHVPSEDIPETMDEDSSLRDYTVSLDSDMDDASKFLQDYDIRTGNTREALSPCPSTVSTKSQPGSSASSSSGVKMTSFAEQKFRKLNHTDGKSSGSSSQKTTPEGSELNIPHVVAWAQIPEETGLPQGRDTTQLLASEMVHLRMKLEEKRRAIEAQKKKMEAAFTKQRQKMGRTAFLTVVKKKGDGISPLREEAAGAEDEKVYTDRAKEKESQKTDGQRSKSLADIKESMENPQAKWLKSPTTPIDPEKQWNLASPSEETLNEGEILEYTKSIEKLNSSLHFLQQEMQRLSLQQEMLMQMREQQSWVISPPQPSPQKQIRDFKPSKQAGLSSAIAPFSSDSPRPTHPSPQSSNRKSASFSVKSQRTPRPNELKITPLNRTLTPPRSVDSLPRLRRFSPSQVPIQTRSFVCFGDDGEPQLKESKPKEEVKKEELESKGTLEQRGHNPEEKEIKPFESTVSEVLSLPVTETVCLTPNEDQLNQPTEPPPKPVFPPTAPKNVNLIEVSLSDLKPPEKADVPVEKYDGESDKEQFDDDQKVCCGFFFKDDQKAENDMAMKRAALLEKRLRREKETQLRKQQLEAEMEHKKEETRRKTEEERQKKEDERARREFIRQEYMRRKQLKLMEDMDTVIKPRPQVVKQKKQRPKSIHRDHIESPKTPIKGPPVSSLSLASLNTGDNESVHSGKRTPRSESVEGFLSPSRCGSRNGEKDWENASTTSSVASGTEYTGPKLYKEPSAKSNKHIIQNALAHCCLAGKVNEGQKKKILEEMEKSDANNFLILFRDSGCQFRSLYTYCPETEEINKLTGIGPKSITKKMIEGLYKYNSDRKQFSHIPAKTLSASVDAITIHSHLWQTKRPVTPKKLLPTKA
UniProt O43852: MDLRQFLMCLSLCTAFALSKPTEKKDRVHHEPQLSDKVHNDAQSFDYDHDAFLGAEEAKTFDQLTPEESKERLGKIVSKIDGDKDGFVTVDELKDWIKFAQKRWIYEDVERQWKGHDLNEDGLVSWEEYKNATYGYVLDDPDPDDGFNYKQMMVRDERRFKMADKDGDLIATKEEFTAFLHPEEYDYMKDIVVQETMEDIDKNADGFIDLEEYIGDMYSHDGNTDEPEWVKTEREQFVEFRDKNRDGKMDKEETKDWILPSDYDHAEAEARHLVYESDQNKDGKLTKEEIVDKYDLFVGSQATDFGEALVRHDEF
UniProt Q9H0W9: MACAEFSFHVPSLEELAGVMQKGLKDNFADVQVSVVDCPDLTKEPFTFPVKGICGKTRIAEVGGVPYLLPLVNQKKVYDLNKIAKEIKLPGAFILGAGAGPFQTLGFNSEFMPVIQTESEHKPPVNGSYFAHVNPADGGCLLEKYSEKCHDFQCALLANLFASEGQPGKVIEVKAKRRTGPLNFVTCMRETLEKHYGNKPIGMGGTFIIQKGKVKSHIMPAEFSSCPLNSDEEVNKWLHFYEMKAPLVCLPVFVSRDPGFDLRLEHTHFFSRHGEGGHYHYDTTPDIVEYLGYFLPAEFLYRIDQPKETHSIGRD
UniProt P05937: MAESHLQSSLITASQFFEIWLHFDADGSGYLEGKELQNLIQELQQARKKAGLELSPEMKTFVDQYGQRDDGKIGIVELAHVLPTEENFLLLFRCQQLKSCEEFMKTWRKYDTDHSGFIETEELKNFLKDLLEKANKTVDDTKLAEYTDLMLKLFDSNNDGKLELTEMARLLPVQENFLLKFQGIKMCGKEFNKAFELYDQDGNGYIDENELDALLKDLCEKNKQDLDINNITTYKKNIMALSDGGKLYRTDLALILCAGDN
UniProt Q13895: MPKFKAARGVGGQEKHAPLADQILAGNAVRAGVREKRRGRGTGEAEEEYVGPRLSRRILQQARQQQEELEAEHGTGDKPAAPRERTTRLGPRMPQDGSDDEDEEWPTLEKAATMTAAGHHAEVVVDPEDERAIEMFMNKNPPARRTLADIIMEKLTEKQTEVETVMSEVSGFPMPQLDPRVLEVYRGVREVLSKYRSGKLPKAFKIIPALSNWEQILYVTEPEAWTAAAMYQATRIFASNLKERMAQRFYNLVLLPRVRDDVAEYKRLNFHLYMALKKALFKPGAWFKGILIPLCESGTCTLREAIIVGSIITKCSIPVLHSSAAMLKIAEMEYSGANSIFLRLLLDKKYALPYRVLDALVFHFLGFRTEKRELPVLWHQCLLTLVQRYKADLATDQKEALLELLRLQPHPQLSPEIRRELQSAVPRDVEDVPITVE
UniProt Q96GV9: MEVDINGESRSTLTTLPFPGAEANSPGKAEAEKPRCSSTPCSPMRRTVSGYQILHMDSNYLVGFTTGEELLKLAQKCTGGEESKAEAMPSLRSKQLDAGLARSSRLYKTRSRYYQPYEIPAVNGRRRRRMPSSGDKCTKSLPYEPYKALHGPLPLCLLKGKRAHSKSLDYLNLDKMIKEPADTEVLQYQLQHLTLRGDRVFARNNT
UniProt Q6P1S2: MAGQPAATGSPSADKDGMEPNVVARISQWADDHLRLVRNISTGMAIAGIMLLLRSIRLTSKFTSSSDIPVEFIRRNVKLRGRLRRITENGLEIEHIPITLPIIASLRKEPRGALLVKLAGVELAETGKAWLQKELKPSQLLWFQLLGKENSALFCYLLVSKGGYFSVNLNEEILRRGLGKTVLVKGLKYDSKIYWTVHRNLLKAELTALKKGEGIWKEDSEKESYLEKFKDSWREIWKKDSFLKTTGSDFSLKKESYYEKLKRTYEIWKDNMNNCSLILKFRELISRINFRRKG
UniProt Q9UFG5: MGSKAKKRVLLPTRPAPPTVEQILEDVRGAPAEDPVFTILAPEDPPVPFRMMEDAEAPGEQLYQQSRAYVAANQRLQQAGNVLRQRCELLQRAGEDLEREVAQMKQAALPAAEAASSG
UniProt Q3KRA6: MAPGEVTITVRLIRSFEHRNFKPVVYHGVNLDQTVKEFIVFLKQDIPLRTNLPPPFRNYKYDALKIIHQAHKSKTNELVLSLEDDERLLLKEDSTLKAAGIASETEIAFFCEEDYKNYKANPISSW
UniProt Q96HA4: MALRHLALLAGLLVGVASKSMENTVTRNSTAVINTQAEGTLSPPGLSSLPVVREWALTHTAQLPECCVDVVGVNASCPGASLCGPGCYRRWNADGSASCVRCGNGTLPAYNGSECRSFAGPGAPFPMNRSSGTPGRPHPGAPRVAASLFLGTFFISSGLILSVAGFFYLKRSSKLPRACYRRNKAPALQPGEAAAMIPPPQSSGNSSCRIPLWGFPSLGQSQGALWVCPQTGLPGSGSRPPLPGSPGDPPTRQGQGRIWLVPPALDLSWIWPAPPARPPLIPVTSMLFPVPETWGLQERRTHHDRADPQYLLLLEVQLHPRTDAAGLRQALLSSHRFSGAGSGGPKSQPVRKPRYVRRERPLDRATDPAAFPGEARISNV
UniProt Q5SNV9: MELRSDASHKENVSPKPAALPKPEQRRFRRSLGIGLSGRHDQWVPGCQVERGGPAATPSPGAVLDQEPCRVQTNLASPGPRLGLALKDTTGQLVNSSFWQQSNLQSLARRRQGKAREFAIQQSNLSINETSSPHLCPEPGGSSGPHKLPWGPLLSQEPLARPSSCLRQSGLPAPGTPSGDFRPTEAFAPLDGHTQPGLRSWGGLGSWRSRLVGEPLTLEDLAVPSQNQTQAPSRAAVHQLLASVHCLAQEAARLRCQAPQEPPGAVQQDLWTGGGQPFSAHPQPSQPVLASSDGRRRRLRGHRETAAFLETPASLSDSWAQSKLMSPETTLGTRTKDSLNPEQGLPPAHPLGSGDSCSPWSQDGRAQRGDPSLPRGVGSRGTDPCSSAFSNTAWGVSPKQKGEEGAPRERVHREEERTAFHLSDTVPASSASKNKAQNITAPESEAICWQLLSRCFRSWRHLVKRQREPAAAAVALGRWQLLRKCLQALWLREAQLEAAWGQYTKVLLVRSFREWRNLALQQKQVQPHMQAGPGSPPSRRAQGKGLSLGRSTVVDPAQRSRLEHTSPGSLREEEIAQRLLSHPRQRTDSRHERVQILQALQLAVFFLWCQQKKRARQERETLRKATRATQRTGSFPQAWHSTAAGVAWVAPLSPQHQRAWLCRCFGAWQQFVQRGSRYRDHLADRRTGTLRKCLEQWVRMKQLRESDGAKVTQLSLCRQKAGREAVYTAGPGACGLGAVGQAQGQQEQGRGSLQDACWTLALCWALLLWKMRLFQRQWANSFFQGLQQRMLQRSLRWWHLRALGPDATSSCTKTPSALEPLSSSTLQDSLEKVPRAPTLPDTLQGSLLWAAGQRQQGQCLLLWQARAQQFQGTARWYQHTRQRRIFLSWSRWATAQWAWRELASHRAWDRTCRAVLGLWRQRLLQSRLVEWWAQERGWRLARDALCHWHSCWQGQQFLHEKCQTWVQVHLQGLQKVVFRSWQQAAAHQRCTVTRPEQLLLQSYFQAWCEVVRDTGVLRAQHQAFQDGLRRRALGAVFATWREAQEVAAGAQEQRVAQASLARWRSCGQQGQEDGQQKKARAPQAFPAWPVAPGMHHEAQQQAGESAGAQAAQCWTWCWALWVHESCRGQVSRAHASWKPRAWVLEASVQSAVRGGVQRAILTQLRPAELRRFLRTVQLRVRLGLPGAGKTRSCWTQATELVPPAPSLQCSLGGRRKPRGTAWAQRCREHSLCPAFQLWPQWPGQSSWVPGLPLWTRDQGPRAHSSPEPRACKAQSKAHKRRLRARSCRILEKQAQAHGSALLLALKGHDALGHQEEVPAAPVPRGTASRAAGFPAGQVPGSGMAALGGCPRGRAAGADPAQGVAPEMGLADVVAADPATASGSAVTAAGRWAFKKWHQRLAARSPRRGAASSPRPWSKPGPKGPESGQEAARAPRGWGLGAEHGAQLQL
UniProt Q6ZRI6: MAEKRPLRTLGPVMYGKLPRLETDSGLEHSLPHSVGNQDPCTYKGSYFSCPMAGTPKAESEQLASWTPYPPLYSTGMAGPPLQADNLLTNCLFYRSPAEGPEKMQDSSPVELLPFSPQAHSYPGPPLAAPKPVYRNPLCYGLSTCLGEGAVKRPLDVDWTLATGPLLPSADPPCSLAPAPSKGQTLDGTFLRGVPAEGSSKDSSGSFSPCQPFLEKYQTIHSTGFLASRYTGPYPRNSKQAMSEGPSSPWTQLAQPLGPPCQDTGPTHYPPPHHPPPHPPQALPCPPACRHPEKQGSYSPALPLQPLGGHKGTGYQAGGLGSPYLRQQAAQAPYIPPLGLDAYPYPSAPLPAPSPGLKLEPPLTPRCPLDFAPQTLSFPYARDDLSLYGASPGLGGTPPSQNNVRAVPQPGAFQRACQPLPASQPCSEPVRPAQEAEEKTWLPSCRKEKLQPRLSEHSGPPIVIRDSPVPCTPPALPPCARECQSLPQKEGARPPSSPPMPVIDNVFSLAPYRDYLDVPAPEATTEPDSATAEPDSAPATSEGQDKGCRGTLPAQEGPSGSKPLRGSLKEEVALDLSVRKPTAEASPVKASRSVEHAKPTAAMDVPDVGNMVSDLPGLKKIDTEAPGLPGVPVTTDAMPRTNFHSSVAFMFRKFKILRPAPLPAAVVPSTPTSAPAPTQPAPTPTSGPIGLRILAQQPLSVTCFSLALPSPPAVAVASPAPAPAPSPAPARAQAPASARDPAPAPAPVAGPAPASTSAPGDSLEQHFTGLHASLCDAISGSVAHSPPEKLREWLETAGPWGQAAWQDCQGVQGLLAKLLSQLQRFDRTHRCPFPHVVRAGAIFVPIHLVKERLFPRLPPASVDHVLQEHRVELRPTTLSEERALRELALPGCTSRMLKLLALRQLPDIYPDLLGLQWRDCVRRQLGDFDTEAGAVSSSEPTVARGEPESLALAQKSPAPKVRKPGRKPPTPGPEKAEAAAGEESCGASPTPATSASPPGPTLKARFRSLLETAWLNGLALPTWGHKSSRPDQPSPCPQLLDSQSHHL

Tests used:
Experiment in all cases: log2 fold change, soluble protein after heating vs DMSO (PISA); higher = thermal stabilisation; K562 lysate, 10 uM; active = over 0.2 and 3.5 SD of the protein, either way, in both replicates (recomputed)
alvocidib = compound: CN1CC[C@H](c2c(O)cc(O)c3c(=O)cc(-c4ccccc4Cl)oc23)[C@H](O)C1 [alvocidib]
Outline: (§1)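 To prepare the extract, K562 pellets were dounce-homogenised in PBS pH 7.4 with 1 mM MgCl2, giving crude material at 1 mg/mL protein. This was treated with 10 μM compound for 30 min, then heated in aliquots for 3 min over 48°C-58°C before pooling and addition of NP-40 to 0.5% at 4°C. Centrifugation at 21,000xg for 90 min left soluble protein in the supernatant, which TMTpro 16plex LC-MS/MS quantified with equalised channel sums. Results are log-two fold changes in thermal stability compared with solvent controls, from duplicates.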

Tubastatin A = compound: CN1CCc2c(c3ccccc3n2Cc2ccc(C(=O)NO)cc2)C1 [Tubastatin A]
Outline: as §1

[1] = compound: CNC(=O)C1=CC=CC=C1NC2=NC(=NC=C2Cl)NC3=C(C=C(C=C3)N4CCOCC4)OC
Outline: as §1

defactinib = compound: CNC(=O)c1ccc(Nc2ncc(C(F)(F)F)c(NCc3nccnc3N(C)S(C)(=O)=O)n2)cc1 [defactinib]
Outline: as §1

[2] = compound: CNc1nc(-c2ccc3c(N)n[nH]c3c2)cc(N2C[C@@H](C(=O)NC3CCCCC3)CC[C@H]2C)n1
Outline: as §1

encorafenib = compound: COC(=O)N[C@@H](C)CNc1nccc(-c2cn(C(C)C)nc2-c2cc(Cl)cc(NS(C)(=O)=O)c2F)n1 [encorafenib]
Outline: as §1

[3] = compound: COC(=O)[C@H](CCSC)NC(=O)C1=C(C=C(C=C1)NC[C@H](CS)N)C2=CC=CC=C2
Outline: as §1

alisertib = compound: COc1cc(Nc2ncc3c(n2)-c2ccc(Cl)cc2C(c2c(F)cccc2OC)=NC3)ccc1C(=O)O [alisertib]
Outline: as §1

gefitinib = compound: COc1cc2ncnc(Nc3ccc(F)c(Cl)c3)c2cc1OCCCN1CCOCC1 [gefitinib]
Outline: as §1

crizotinib = compound: C[C@@H](Oc1cc(-c2cnn(C3CCNCC3)c2)cnc1N)c1c(Cl)ccc(F)c1Cl [crizotinib]
Outline: as §1

[4] = compound: C[C@H](C1=CC=C(C=C1)C(=O)NC2=C3C=CNC3=NC=C2)N
Outline: as §1

duvelisib = compound: C[C@H](Nc1ncnc2nc[nH]c12)c1cc2cccc(Cl)c2c(=O)n1-c1ccccc1 [duvelisib]
Outline: as §1

gandotinib = compound: Cc1cc(Nc2cc(CN3CCOCC3)c3nc(C)c(Cc4ccc(Cl)cc4F)n3n2)n[nH]1 [gandotinib]
Outline: as §1

tozasertib = compound: Cc1cc(Nc2cc(N3CCN(C)CC3)nc(Sc3ccc(NC(=O)C4CC4)cc3)n2)n[nH]1 [tozasertib]
Outline: as §1

doramapimod = compound: Cc1ccc(-n2nc(C(C)(C)C)cc2NC(=O)Nc2ccc(OCCN3CCOCC3)c3ccccc23)cc1 [doramapimod]
Outline: as §1

[5] = compound: Cc1cccc(CC(=O)N2CCc3c2ccc(-c2cn(C)c4ncnc(N)c24)c3F)n1
Outline: as §1

[6] = compound: COc1cc2nc(-c3cc(F)ccc3O)nc(N[C@@H]3CNC[C@H]3C(C)(C)O)c2cc1OC
Outline: as §1

lapatinib = compound: CS(=O)(=O)CCNCc1ccc(-c2ccc3ncnc(Nc4ccc(OCc5cccc(F)c5)c(Cl)c4)c3c2)o1 [lapatinib]
Outline: as §1

pictilisib = compound: CS(=O)(=O)N1CCN(Cc2cc3nc(-c4cccc5[nH]ncc45)nc(N4CCOCC4)c3s2)CC1 [pictilisib]
Outline: as §1

bafetinib = compound: Cc1ccc(NC(=O)c2ccc(CN3CC[C@H](N(C)C)C3)c(C(F)(F)F)c2)cc1Nc1nccc(-c2cncnc2)n1 [bafetinib]
Outline: as §1

Measured: log2 fold change

CAMSAP2 (UniProt Q08AD1)
inactive: alvocidib 0.078 | Tubastatin A 0.084 | [1] -0.035 | defactinib -0.007 | [2] -0.043 | encorafenib 0.01 | [3] 0.077 | alisertib -0.346 | gefitinib -0.068 | crizotinib -0.012 | [4] 0.043 | duvelisib 0.065 | gandotinib -0.016 | tozasertib 0.081 | doramapimod 0.065 | [5] 0.06

CALU isoform 4 (UniProt O43852)
inactive: alvocidib -0.05 | Tubastatin A 0.032 | [1] -0.026 | defactinib -0.052 | [2] -0.017 | encorafenib 0 | [3] -0.035 | alisertib 0.028 | [6] 0.011 | gefitinib 0.047 | lapatinib -0.038 | pictilisib -0.043 | crizotinib 0.05 | [4] -0.076 | duvelisib 0.025 | gandotinib 0.06 | tozasertib 0.026 | doramapimod 0 | bafetinib -0.03 | [5] -0.02

C11orf54 (UniProt Q9H0W9)
inactive: alvocidib -0.004 | Tubastatin A 0.04 | [1] -0.019 | defactinib -0.027 | [2] -0.015 | encorafenib -0.016 | [3] -0.038 | alisertib -0.006 | [6] 0.026 | gefitinib -0.041 | lapatinib -0.002 | pictilisib -0.016 | crizotinib -0.025 | [4] 0.001 | duvelisib 0.055 | gandotinib 0.011 | tozasertib -0.027 | doramapimod -0.031 | bafetinib 0.006 | [5] 0.013

CALB1 (UniProt P05937)
inactive: alvocidib 0.051 | Tubastatin A 0.036 | [1] -0.009 | defactinib -0.017 | [2] -0.047 | encorafenib -0.015 | [3] -0.071 | alisertib -0.018 | [6] 0.008 | gefitinib 0.024 | lapatinib -0.006 | pictilisib -0.012 | crizotinib 0.066 | [4] 0.149 | duvelisib -0.003 | gandotinib -0.086 | tozasertib 0.014 | doramapimod -0.014 | bafetinib 0.023 | [5] -0.097

BYSL (UniProt Q13895)
inactive: alvocidib 0.014 | Tubastatin A -0.055 | [1] 0.008 | defactinib 0.007 | [2] -0.027 | encorafenib 0.007 | [3] 0.072 | alisertib -0.002 | [6] -0.004 | gefitinib -0.013 | lapatinib -0.012 | pictilisib 0.019 | crizotinib -0.007 | [4] 0.023 | duvelisib -0.02 | gandotinib -0.087 | tozasertib 0.004 | doramapimod 0.003 | bafetinib -0.105 | [5] 0.037

C5orf30 (UniProt Q96GV9)
inactive: alvocidib 0.052 | Tubastatin A 0.11 | [1] -0.004 | defactinib -0.017 | [2] -0.137 | encorafenib -0.035 | [3] 0.094 | alisertib -0.059 | gefitinib -0.042 | pictilisib -0.109 | crizotinib 0.06 | [4] 0.08 | duvelisib 0.001 | gandotinib -0.11 | tozasertib -0.036 | doramapimod -0.005 | bafetinib 0.103 | [5] -0.108

C3orf33 (UniProt Q6P1S2)
inactive: alvocidib -0.166 | Tubastatin A 0.124 | [1] -0.084 | defactinib 0.224 | [2] 0.115 | alisertib -0.13 | [6] -0.111 | gefitinib 0.006 | lapatinib 0.09 | pictilisib 0.059 | crizotinib -0.051 | [4] -0.541 | duvelisib 0.101 | gandotinib 0.14 | doramapimod -0.025 | bafetinib -0.046 | [5] 0.263

C19orf25 (UniProt Q9UFG5)
inactive: alvocidib 0.056 | Tubastatin A 0.057 | [1] 0.153 | defactinib 0.049 | [2] 0.137 | alisertib 0.014 | [6] 0 | gefitinib -0.106 | lapatinib 0.028 | pictilisib -0.052 | crizotinib -0.051 | [4] 0.122 | duvelisib 0.029 | gandotinib -0.12 | doramapimod -0.016 | bafetinib -0.083 | [5] -0.046

C2orf76 (UniProt Q3KRA6)
inactive: alvocidib 0.051 | Tubastatin A 0.052 | [1] -0.035 | [2] 0.008 | encorafenib 0.017 | [3] 0.038 | alisertib 0.018 | [6] -0.013 | gefitinib -0.005 | lapatinib -0.022 | pictilisib -0.059 | crizotinib -0.025 | [4] -0.088 | duvelisib -0.017 | gandotinib 0.05 | tozasertib -0.086 | doramapimod -0.074 | bafetinib 0.027 | [5] 0.06

C1orf159 isoform 4 (UniProt Q96HA4)
inactive: alvocidib -0.081 | [2] -0.079 | encorafenib -0.026 | [3] 0.105 | [4] 0.005 | duvelisib 0.272 | gandotinib 0.036 | tozasertib -0.059 | [5] -0.041

C1orf167 isoform 2 (UniProt Q5SNV9)
inactive: alvocidib -0.118 | Tubastatin A 0.048 | [1] 0.034 | defactinib -0.214 | [2] 0 | alisertib 0.073 | [6] 0.035 | gefitinib 0.078 | lapatinib -0.046 | pictilisib 0.02 | crizotinib -0.201 | [4] -0.159 | duvelisib 0.015 | gandotinib 0.112 | doramapimod 0.256 | bafetinib -0.297 | [5] 0.279

C15orf39 (UniProt Q6ZRI6)
inactive: alvocidib -0.04 | Tubastatin A -0.188 | [1] -0.031 | [2] 0.089 | encorafenib 0.047 | [3] 0.059 | alisertib 0.036 | gefitinib -0.067 | pictilisib -0.04 | crizotinib 0.043 | [4] 0.025 | duvelisib -0.049 | gandotinib -0.076 | tozasertib 0.097 | doramapimod 0 | bafetinib 0.19 | [5] -0.055
